Measured values published in article PMC11066871 (Journal of the American Chemical Society, 2024).

Legend:
[1] = general procedure: Fmoc solid-phase peptide synthesis; Trt-TentaGel (C-terminal acids), Rink Amide (C-terminal amides), Fmoc-Tyr-hydrazide Trt resin (hydrazides); HATU, DiPEA (PEG spacer coupling); conditions: for isolated mass / isolated yield: whole synthesis; for step yield: coupling step, on MPA thioester used for NCL, over three steps
[2] = general procedure: Fmoc solid-phase peptide synthesis; Rink Amide; HATU, DiPEA (PEG spacer coupling); conditions: whole synthesis
[3] = scale of the general procedure 10 μmol (optimization tests 25 μmol)

Ac-YSP TSPpS-YSP TSPpS-YSP TS PpS-YSPTSPpS-YSP TSPpS-YSPTSPpS-NH2
isolated mass [1]: 1.23 µmol | isolated yield [1, 3]: 12%

Ac-YSPpTSP S-YSPpTSP S-YSPpTSPS-YSPpTSP S-YSPpTSPS-YSPpTSPS-NH2 [3]
isolated mass [1]: 0.88 µmol | isolated yield [1, 3]: 9%

Ac-YpSPTSPS-YpSPTSPS-YpSP TSPS -YpSPTSPS-YpSP TSPS -YpSPTSPS-NH2
isolated mass ([1]; scale 10 µmol): 0.88 µmol | isolated yield ([1]; scale 10 µmol): 9%

H6-NH-(CH2)2-PEG6-CO-(YSPTSPS)6-YAPTSPS-(YSPTSPS)4-YpSPTSPS
step yield [1]: 50%

H6-NH-(CH2)2-PEG6-CO-(YSPTSPS)6-YAPTSPS-YpSPTSPS-(YSPTSPS)4
step yield [1]: 10%

H6-NH-(CH2)2-PEG6-CO-YSPTSPS-YpSPTSPS-(YSPTSPS)4-YAPTSPS-(YSPTSPS)2-YpSPTSPS-(YSPTSPS)2
step yield [1]: 26%

H6-NH-(CH2)2-PEG6-CO-YSPTSPS-YpSPTSPS-(YSPTSPS)4-YAPTSPS-(YSPTSPS)4-YpSPTSPS
step yield [1]: 16%

H6-NH-(CH2)2-PEG6-CO-YSPTSPS-YpSPTSPS-(YSPTSPS)4-YAPTSPS-(YSPTSPS)-YpSPTSPS-(YSPTSPS)3
step yield [1]: 18%

H6-NH-(CH2)2-PEG6-CO-YSPTSPS-YpSPTSPS-(YSPTSPS)4-YAPTSPS-YpSPTSPS-(YSPTSPS)4
step yield [1]: 33%

HHHHHH- PEG6-YpSP TSPS -YpSPTSPS-YpSPTSPS-YpSP TSPS -YpSPTSP S-YpSP TSPS -NH2
isolated mass [1]: 0.79 µmol | isolated yield [1, 3]: 16%

YSP TSPpS-YpSPTSPS-NH2
isolated yield ([1]; on theoretical full scale of the synthesis, scale of the general procedure 10 μmol (optimization tests 25 μmol)): 27% | isolated mass [2]: 2.7 3 μmol
